Patent US9994594B2, “Inhibitors of arginase and their therapeutic applications” (MARS, INCORPORATED, priority 2010, dated 2018)

By UniProt entry, the sequences of proteins in these tests, tags left out. Residues count along the entry.
UniProt P78540, 23-354 limits assumed: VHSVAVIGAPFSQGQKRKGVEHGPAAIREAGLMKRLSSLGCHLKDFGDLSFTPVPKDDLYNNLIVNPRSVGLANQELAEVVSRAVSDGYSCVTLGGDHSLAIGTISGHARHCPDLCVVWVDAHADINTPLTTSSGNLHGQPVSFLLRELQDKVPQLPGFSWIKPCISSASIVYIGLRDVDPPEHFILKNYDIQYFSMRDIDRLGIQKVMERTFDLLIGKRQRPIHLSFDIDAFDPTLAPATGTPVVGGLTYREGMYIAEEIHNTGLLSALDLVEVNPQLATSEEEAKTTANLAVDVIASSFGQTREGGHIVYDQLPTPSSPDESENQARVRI
UniProt P05089, whole entry: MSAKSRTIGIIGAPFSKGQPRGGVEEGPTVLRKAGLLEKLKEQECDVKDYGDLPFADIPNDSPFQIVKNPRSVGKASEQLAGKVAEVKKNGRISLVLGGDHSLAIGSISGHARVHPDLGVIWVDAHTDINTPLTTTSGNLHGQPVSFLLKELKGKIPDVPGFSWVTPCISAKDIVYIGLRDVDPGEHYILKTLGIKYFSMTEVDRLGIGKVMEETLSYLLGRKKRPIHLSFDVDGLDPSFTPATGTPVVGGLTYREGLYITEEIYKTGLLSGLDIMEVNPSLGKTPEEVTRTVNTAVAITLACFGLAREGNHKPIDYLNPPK

Columns and labels:
arginase II (ARG II) = arginase II (ARG II) (Homo sapiens, UniProt P78540); assay: Inhibition of arginase II, spectrophotometric urea assay at 530 nm; conditions: read-out: Potency (ARG); Formula II compounds, Table 2-A; tested form: dihydrochloride
Description: (§1) The assay established the concentration of inhibitor that is required to reduce arginase activity by 50% (IC50).
(§2) Inhibition of arginase I (ARG I) and arginase II (ARG II) by Formula I and Formula II compounds is followed spectrophotometrically at 530 nm. The compound to be tested is dissolved in DMSO at an initial concentration 50-fold greater than its final concentration in the cuvette. 10 μl of the stock solution is diluted in 90 μl of the assay buffer that comprises 0.1M sodium phosphate buffer containing 130 mM NaCl, pH 7.4, to which is added ovalbumin (OVA) at a concentration of 1 mg/ml. Solutions of arginase I and II are prepared in 100 mM sodium phosphate buffer, pH 7.4 containing 1 mg/ml of OVA to give an arginase stock solution at a final concentration of 100 ng/ml.
(§3) To each well of a 96-well microtiter plate is add 40 μl of enzyme, 10 μl of an inventive compound and 10 μl of enzyme substrate (L-arginine+manganese sulfate). For wells that are used as positive controls, only the enzyme and its substrate are added, while wells used as negative controls contain only manganese sulfate.
(§4) After incubating the microtiter plate at 37° C. for 60 minutes, 150 μl of a urea reagent obtained by combining equal proportions (1:1) of reagents A and B is added to each well of the microtiter plate to stop the reaction. […]

human arginase I (ARG I) = human arginase I (ARG I) (Homo sapiens, UniProt P05089); assay: Inhibition of arginase I, spectrophotometric urea assay at 530 nm; conditions: read-out: Potency (ARG I); Formula II compounds, Table 2-A; tested form: dihydrochloride
Description: as §1, §2, §3, §4

NC(CCCCB(O)O)(C(=O)O)C1CCN(Cc2cccc3c2NCC3)CC1 (centres unmarked)
IC50 (arginase II (ARG II)): 0.1 to 250 nM
IC50 (human arginase I (ARG I)): 0.1 to 250 nM

Structures were worked out from names or drawings and are uncertain.
